In the experiment the target is T1, hmTROP-2-B chimeric protein (human; mouse), Q8BGV3.
T1 chain: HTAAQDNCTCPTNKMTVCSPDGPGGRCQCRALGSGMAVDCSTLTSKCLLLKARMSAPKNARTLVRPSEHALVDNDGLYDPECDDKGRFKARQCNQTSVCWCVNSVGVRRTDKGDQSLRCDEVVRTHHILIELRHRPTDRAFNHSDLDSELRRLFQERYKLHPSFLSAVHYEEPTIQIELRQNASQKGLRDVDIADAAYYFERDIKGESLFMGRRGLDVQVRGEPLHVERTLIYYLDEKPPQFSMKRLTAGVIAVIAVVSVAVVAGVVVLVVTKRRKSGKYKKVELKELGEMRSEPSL
Briefly: flow cytometry (dot plot FL2-H against FL1-H) on HEK293 cells transiently expressing hmTROP-2-B [A]. The settings on record: remark: other sources report otherwise. For orientation: In flow cytometry, cells or beads pass a laser one at a time.

We go through one molecule from patent US20130089872A1.

Results are given in words; binding and its absence hold for the method and conditions named. Some entries that bind do so weakly or less than the wild type.

B1: anti-hTROP-2 monoclonal antibody clone K5-116-2-1 (antibody, V domains shown)
VH: QVQLQQPGAELVRPGASVKLSCKASGYTFTSYWITWVKQRPGQGLEWIGNIYPSDSYTNYNQKFRDKATLTVDKSSSTAYMQLSSPTSEDSAVYYCSALFDYWGQGTTLTVSS
VL: DILLTQSPAILSVSPGERVSFSCRASQSIGTSIHWYQQRTNGSPRLLIKYASESISGIPSRFSGSGSGTDFILSINSVESEDIADYYCQQSNSWPFTFGSGTKLEIK
Turning to B1, the binding result is “binds”.
